Results from patent US6696546.
These are yes or no findings as the source states them, for the method shown. For some of these results: Binding seen in cells or lysates may run through a third protein. Some results given as binding are weak or reduced against the parent protein; the word gives no strength.

The chains behind the UniProt entries cited, without tags or fusion partners. Where a name states a change or a piece, a line headed by the entry shows the natural chain unless it says otherwise. A line that says so, or that is headed by a name, gives the form on record, which may keep a tag or linker.
UniProt P14635: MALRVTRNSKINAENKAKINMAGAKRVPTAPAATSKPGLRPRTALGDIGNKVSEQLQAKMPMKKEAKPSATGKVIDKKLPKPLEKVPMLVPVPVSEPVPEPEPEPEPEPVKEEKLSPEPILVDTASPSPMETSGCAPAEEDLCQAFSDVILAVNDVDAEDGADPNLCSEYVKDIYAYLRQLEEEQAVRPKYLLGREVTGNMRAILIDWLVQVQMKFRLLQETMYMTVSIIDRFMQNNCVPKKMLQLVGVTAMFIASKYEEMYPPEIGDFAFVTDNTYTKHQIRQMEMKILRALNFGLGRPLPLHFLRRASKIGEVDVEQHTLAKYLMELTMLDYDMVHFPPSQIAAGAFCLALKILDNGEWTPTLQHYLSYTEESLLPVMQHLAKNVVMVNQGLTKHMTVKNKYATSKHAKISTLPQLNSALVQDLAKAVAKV
bovine PAP I (poly(A) polymerase I), full-length (P25500, form named): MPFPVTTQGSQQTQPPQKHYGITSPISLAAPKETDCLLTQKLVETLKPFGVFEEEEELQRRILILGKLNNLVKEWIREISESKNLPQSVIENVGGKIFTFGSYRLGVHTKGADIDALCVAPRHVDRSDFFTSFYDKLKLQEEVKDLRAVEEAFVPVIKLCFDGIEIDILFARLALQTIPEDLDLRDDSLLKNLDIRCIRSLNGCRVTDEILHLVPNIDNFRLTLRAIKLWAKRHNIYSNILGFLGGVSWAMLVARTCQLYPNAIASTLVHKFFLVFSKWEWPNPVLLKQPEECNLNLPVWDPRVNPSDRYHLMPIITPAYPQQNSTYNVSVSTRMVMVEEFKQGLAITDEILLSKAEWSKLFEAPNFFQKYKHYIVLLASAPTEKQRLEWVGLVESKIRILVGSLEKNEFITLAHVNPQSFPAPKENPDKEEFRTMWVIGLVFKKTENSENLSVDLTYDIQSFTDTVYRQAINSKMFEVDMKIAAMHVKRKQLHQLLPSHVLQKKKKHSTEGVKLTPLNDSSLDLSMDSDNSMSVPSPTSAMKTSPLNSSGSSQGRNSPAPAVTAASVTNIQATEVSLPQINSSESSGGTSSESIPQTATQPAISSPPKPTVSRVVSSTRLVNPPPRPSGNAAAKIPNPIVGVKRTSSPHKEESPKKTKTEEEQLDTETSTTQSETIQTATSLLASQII

Legend:
[1] = molecular target: GST-Cyclin B1 fusion protein (UniProt P14635); experiment: GST-cyclin B1 pull-down of purified bacterial PAP with peptides, Western blot
[2] = molecular target: GST-Cyclin B1 fusion protein (UniProt P14635); experiment: GST-cyclin B1 (1 µg) pull-down of purified his-PAP I (100 ng) with the PAP CRM 8-mer, Western blot with anti-PAP polyclonal antibody
[3] = molecular target: GST-Cyclin A fusion protein (UniProt P20248); experiment: GST pull-down of in vitro translated 35S PAP
[4] = molecular target: GST-Cyclin B1 fusion protein (UniProt P14635); experiment: GST pull-down of in vitro translated 35S PAPs
[5] = molecular target: GST-Cyclin B1 fusion protein (UniProt P14635); experiment: GST-cyclin B1 pull-down of 35S PAP with the PAP CRM 8-mer
[6] = molecular target: human cyclin B1 (human) (UniProt P14635); experiment: co-immunoprecipitation from sf9 cell extracts, Western blot
[7] = molecular target: GST-Cyclin A fusion protein (UniProt P20248); experiment: GST pull-down of in vitro translated 35S PAP I, autoradiography
[8] = molecular target: GST-Cyclin B1 fusion protein (UniProt P14635); experiment: as above
[9] = molecular target: GST-Cyclin B1 fusion protein (UniProt P14635); experiment: GST-cyclin B1 pull-down of in vitro translated 35S PAPs, autoradiography
[10] = molecular target: human cyclin B1 (human) (UniProt P14635); experiment: co-immunoprecipitation with anti-PAP polyclonal antibody from co-infected sf9 cell extracts, Western blot with anti-cyclin B1 antibody

Measured: binding

bacterial produced, purified his-PAP I (from UniProt P25500 1-689) (enzyme)
binds: [1] | [2]

bovine PAP I (poly(A) polymerase I), full-length (from UniProt P25500 1-689) (enzyme)
not listed: [1] | [2]
binds: all other assays above
